Results deposited as PubChem BioAssay AID686938 (Drosophila RNAi Screening Center, 2013).
Test: 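Knock-downs reducing store-operated calcium influx in Drosophila cells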 (primary screen). Cells: Drosophila S2R+ cells. Knock-down reagent: long dsRNA against Drosophila genes, about 0.25 µg dsRNA per well, roughly 10,000 cells. Duration: 5 days of knock-down before the calcium assay. Treatment: thapsigargin (SERCA pump blocker) to empty calcium stores; entry signal taken 4 min after adding it. Read-out: 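Duplicate raw fluo-4 intensities per well from a plate reader, at rest and four minutes after thapsigargin emptied calcium stores; entry-to-rest ratio filled for only some wells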. Direction: calcium entry signal: higher = stronger calcium signal after store depletion; entry to resting ratio: higher = more calcium entry relative to resting level; resting calcium signal: higher = higher resting calcium signal. Hit rule: 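Hit if the duplicate-averaged plate z-score for entry over resting signal is under −3; wells with weak total dye signal (Fmax z < −2) or more than 5 off-targets removed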. Calls: active = strongly reduced calcium entry; inactive = no strong reduction.
In all, the deposit lists about 23,000 reagents; this is an unselected part of those with a known target gene and a result. In the full data, 75 (0.33%) were called active. 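Raw plate signals without normalisation; calls rest on plate z-scores that were not deposited; ratio present for only 364 wells.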 Unmarked entries are inactive. No sequences are given here. Not stated in the record: the dose of the treatment.

no.	target	dsRNA	calcium entry signal, replicate 1 (fluorescence units)	calcium entry signal, replicate 2 (fluorescence units)	entry to resting ratio	resting calcium signal, replicate 1 (fluorescence units)	resting calcium signal, replicate 2 (fluorescence units)
1	CG15643	DRSC19679	2.97e7	3.71e7		1.56e7	1.71e7
2	CG17321	DRSC02598	3.16e7	3.47e7		1.62e7	1.57e7
3	spn-E	DRSC17064	3.08e7	4.23e7		1.46e7	5.64e7
4	Krn	DRSC11202	3.54e7	6.44e7		2.07e7	2.72e7
5	CG3107	DRSC04888	3.30e7			1.63e7	
6	Gapdh2	DRSC20246	3.36e7	3.92e7		2.05e7	1.91e7
7	FipoQ	DRSC15413	3.27e7	3.19e7		1.93e7	1.54e7
8	Or49b	DRSC07494	3.12e7	3.87e7		1.66e7	1.68e7
9	nAChRalpha6	DRSC01096	3.60e7	3.79e7		1.76e7	1.67e7
10	nAChRalpha6	DRSC01098	3.33e7	4.53e7		1.56e7	1.76e7
11	nAChRalpha6	DRSC02738	5.70e7			2.63e7	
12	CG32302	DRSC08340	3.20e7	4.46e7		1.61e7	1.93e7
13	CG17230	DRSC15203	1.97e7	3.05e7		8.78e6	1.46e7
14	CG10920	DRSC17765	3.36e7	2.94e7		1.63e7	1.48e7
15	c12.1	DRSC18750	3.56e7	4.64e7		1.89e7	2.51e7
16	CG11113	DRSC06039	3.76e7	3.44e7		1.65e7	1.48e7
17	CG2604	DRSC12313	3.91e7	2.55e7		1.84e7	1.20e7
18	ich	DRSC12715	3.35e7	5.91e7		1.62e7	2.85e7
19	ich	DRSC14448	5.03e7	3.70e7		2.54e7	1.78e7
20	CG2663	DRSC12314	6.48e7	5.21e7		2.54e7	2.36e7
21	CG1737	DRSC19771	4.68e7	2.41e7		2.26e7	1.39e7
22	CG13067	DRSC09950	3.82e7	6.40e7		2.02e7	2.42e7
23	CG5162	DRSC19935	4.20e7	3.41e7		2.20e7	1.60e7
24	CG15202	DRSC19649	3.49e7	4.89e7		1.79e7	2.42e7
25	CG31952	DRSC00428	3.18e7	3.43e7		1.55e7	1.56e7
26	CG31952	DRSC21997	2.40e7	4.17e7		1.23e7	1.94e7
27	CG32447	DRSC11732	3.34e7	3.98e7		1.60e7	2.61e7
28	CG32447	DRSC11805	2.89e7	4.23e7		1.44e7	2.03e7
29	CG13670	DRSC10029	1.92e7	2.96e7		9.21e6	1.39e7
30	Drp1	DRSC00574	3.61e7			2.12e7	
31	Agxt	DRSC18718	3.60e7	3.34e7		1.74e7	1.57e7
32	Trs20	DRSC10489	3.43e7	5.95e7		1.66e7	2.34e7

Entries above whose gene name begins with I or i (2):
target	dsRNA	calcium entry signal, replicate 1 (fluorescence units)	calcium entry signal, replicate 2 (fluorescence units)	entry to resting ratio	resting calcium signal, replicate 1 (fluorescence units)	resting calcium signal, replicate 2 (fluorescence units)
ich	DRSC12715	3.35e7	5.91e7		1.62e7	2.85e7
ich	DRSC14448	5.03e7	3.70e7		2.54e7	1.78e7

More entries follow:
no.	target	dsRNA	calcium entry signal, replicate 1 (fluorescence units)	calcium entry signal, replicate 2 (fluorescence units)	entry to resting ratio	resting calcium signal, replicate 1 (fluorescence units)	resting calcium signal, replicate 2 (fluorescence units)
33	Orct	DRSC16777	3.27e7	3.16e7		1.57e7	1.41e7
34	CG7785	DRSC16311	3.58e7	3.65e7		4.24e7	1.69e7
35	CG4318	DRSC19887	4.68e7	6.31e7		2.25e7	2.92e7
36	CG14731	DRSC14952	3.55e7	3.88e7		1.83e7	1.98e7
37	CG9231	DRSC11054	2.71e7	3.70e7		1.17e7	2.54e7
38	bru3	DRSC09280	4.33e7	4.20e7		2.07e7	1.92e7
39	bru3	DRSC09291	3.09e7	3.58e7		1.43e7	1.46e7
40	bru3	DRSC09292	2.94e7	3.19e7		1.35e7	1.36e7
41	bru3	DRSC09687	2.84e7	4.00e7		1.28e7	2.49e7
42	bru3	DRSC09887	3.04e7	4.83e7		1.49e7	2.15e7
43	bru3	DRSC22732	4.61e7	3.94e7		2.39e7	1.79e7
44	Noc1	DRSC10921	3.07e7	2.85e7		2.08e7	1.37e7
45	mthl3	DRSC06997	2.83e7	2.81e7		1.35e7	1.44e7
46	Taf10b	DRSC00792	3.46e7	4.20e7		1.64e7	1.69e7
47	CG15543	DRSC15081	4.37e7	5.33e7		2.15e7	2.06e7
48	CG42541	DRSC17973	2.49e7	3.66e7		1.30e7	1.72e7
49	CG42541	DRSC18119	1.83e7	3.23e7		1.06e7	1.71e7
50	CG42541	DRSC18120	2.57e7	3.38e7		1.33e7	1.56e7
51	fs(1)N	DRSC18578	5.18e7	4.43e7	2.1	2.41e7	1.95e7
52	Art4	DRSC15779	3.19e7	4.51e7		1.71e7	2.15e7
53	Tif-IA	DRSC03717	2.86e7			1.60e7	
54	Tif-IA	DRSC03726	3.96e7	3.06e7		2.23e7	1.54e7
55	Wdr59	DRSC02771	5.77e7			2.56e7	
56	Trc8	DRSC15437	3.66e7	3.92e7		1.75e7	1.90e7
57	beag	DRSC15296	4.30e7	4.58e7		1.61e7	1.98e7
58	Chrac-16	DRSC20343	3.07e7	3.47e7		1.43e7	1.30e7
59	dpr3	DRSC00395	3.23e7	3.82e7		1.58e7	1.83e7
60	dpr3	DRSC00396	3.03e7	3.64e7		1.41e7	1.77e7
61	dpr3	DRSC21369	2.26e7	2.80e7		1.34e7	1.57e7
62	hth	DRSC16967	2.96e7	3.14e7		1.37e7	1.63e7
63	Hmgcl	DRSC02051	3.68e7	4.24e7		1.85e7	1.83e7
64	CG13566	DRSC04203	3.82e7	4.47e7		1.96e7	2.07e7
65	Tusp	DRSC15838	1.43e7	3.50e7		8.50e6	1.44e7
66	CG7139	DRSC11611	3.85e7	5.15e7		1.83e7	3.34e7
67	CG11231 (retired record)	DRSC17207	5.48e7	4.78e7	2.1	2.58e7	2.18e7
68	CG43116	DRSC13737	3.30e7	4.20e7		1.65e7	2.04e7
69	Spn31A	DRSC02780	2.36e7	3.44e7		1.19e7	1.65e7
70	CG30054	DRSC05354	4.93e7	4.03e7		2.03e7	1.73e7
71	CG33639	DRSC19966	3.38e7	4.14e7		1.71e7	1.88e7
72	CG33639	DRSC22820	3.01e7	3.42e7		1.59e7	1.77e7
73	CG9861	DRSC04576	3.47e7			1.69e7	
74	CG7896	DRSC16335	3.45e7	4.26e7		1.54e7	1.89e7
75	CG9101	DRSC20152	2.27e7	1.75e7		1.31e7	9.76e6
